# From PubChem BioAssay AID1439 (NMMLSC, 2008)
# Amino acid sequences for entries named in this document (tags omitted).
# UniProt P09471, whole entry, looked up: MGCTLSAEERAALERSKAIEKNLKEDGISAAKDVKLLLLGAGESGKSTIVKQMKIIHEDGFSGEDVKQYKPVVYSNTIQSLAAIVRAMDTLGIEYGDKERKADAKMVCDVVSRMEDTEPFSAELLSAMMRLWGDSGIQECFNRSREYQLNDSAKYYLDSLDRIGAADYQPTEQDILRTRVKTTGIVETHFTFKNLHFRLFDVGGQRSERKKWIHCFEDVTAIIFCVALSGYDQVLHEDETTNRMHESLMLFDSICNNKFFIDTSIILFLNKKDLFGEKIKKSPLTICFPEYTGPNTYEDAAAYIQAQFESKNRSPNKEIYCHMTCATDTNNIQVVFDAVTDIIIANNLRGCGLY
# Out of some 220,000 compounds screened, about 770 (0.35%) were called active. The inconclusive results got no clear call from the source; some entries with a clear call stand among them for comparison. Cut-off read from the data, not from the text of the source: active = binding response below about 49% or above about 150%; inconclusive = no clear call, values can overlap the other calls; inactive = in between.
# Biological target: Guanine nucleotide-binding protein G(o) subunit alpha (Homo sapiens) (UniProt P09471)
# Test: RGS7-Galphao binding modulators, primary screen, biochemical, multiplexed bead flow cytometry (AID 1439);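 note: fluorescent Galphao held in activated GDP-AlF4 state binding bead-coupled RGS7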
# Conditions: at 10 µM, actives lie on both sides
row,Structure (SMILES),binding response (% of control)
1,COC(=O)c1ccc(C(=O)OC)c(=O)[nH]1,inconclusive: 114%
2,Cc1c(-c2ccccc2)nc(N)c(C#N)c1-c1cccnc1,inconclusive: 129%
3,Cc1ccc(-c2nnc(SCC(=O)N3CCCC3)o2)cc1,inactive: 106%
4,COc1ccc2c(C)c(C)c(=O)oc2c1OC,inconclusive: 104%
5,O=C(CSc1nnc(-c2ccc(F)cc2)c2ccccc12)NCC1CCCO1 (configuration not stated),inactive: 99.9%
6,S=C1NCN(Cc2ccccc2)CN1,inconclusive: 96.4%
7,COc1ccc(-n2c(SCC(=O)N/N=C(\C)c3cccnc3)nc3ccccc3c2=O)cc1,inconclusive: 101%
8,CCOC(=O)c1ccc2nc(C)c(C)nc2c1,inconclusive: 104%
9,O=C(Cn1c(=O)oc2ccccc21)N1CCOCC1,inconclusive: 123%
10,Cc1nc(SCc2ccc(OCCC(C)C)cc2)n[nH]1,inconclusive: 111%
11,COC(=O)Cc1cc(OC)c(OC)cc1S(=O)(=O)N(C)C,inactive: 100%
12,Cc1cc2nc(N=C(N)N)nc(C)c2cc1C,inconclusive: 103%
13,S=C(Nc1ccc(Cl)cc1)NC1CCCCC1,inconclusive: 108%
14,N#Cc1c(N2CCOCC2)nsc1-c1ccc(C(F)(F)F)cc1,inconclusive: 118%
15,CCCc1c(C)nn(C(=O)/C(C#N)=N/Nc2ccccc2[N+](=O)[O-])c1C,inconclusive: 110%
16,CCOC(=O)N1CCc2c(sc3nc[nH]c(=O)c23)C1,inconclusive: 63.7%
17,CC(C)=CCCC(C)CN1CCC(N2CCC(C(=O)N3CCCC3)CC2)CC1 (configuration not stated),inactive: 101%
18,C=C(CO)C1Cc2cc(C(C)=O)ccc2O1 (configuration not stated),inconclusive: 119%
19,Cc1cc(=O)c2c(C)ccc(C)c2[nH]1,inconclusive: 79.3%
20,O=C(Nc1ccccc1Cl)c1ccc(-n2cccn2)c([N+](=O)[O-])c1,inconclusive: 91.2%
21,O=C(c1ccc(S(=O)(=O)N2CCCCC2)cc1)N1CCN(CCN2C(=O)c3cccc4cccc(c34)C2=O)CC1,inconclusive: 97.6%
22,COc1ccc(Nc2nc(N)nc(CSC(=S)N3CCCCC3C)n2)cc1 (configuration not stated),inconclusive: 118%
23,C/C(=N/NC(=O)Cc1cccs1)c1ccco1,inactive: 99.6%
24,CCc1nc(N2CCN(C(C)=O)CC2)c(C#N)c2c1COC(C)(C)C2,inconclusive: 281%
25,CC(=O)c1sc(-c2ccc(F)cc2)cc1NS(=O)(=O)c1ccc(C)cc1,inconclusive: 95.9%
26,Oc1ccc(-c2csc(Nc3ncccn3)n2)cc1O,inconclusive: 98.1%
27,Cc1noc(C(F)(F)F)c1C(=O)NNC(=O)c1ccccc1,inconclusive: 107%
